# Data published in the supplement of paper PMC3334620.
# The full ranking holds about 33,000 sequences; the median of “E-score (-0.5 to 0.5)” is about -0.016, and the highest 2% start at about 0.3. The list shows a part of the results.
# Biological target: T1, Yer184c (UniProt P39961)
# T1 sequence: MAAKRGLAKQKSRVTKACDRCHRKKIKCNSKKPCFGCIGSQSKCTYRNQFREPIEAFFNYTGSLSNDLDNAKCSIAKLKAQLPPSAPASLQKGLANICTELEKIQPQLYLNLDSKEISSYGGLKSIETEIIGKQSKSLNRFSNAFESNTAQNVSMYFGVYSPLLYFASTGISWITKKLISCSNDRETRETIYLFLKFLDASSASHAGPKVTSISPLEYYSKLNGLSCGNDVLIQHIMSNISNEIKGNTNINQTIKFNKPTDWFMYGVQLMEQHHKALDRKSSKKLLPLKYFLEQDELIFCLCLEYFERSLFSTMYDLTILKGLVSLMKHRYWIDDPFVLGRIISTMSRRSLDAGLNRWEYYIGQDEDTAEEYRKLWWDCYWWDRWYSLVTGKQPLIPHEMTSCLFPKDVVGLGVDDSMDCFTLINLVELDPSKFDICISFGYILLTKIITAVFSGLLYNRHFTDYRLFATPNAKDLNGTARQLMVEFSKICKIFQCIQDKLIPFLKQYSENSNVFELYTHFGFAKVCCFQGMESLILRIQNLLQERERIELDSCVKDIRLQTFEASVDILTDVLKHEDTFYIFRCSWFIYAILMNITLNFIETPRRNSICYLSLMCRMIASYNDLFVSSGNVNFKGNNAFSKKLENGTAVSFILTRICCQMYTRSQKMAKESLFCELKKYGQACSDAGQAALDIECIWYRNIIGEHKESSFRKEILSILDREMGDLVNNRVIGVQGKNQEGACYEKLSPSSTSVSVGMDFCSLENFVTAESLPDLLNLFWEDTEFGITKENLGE
# Assay: PBM E-score (8-mer binding enrichment) (E-score (-0.5 to 0.5)); higher = stronger / more preferred TF binding
# Details: protein concentration: 100 nM; construct: GST-full length
# In short: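 Bound GST-tagged yeast transcription factors, applied at about 100-200 nM to double-stranded universal all-10-mer Agilent arrays, were detected with fluorescent anti-GST. Scans were normalised with masliner. A modified Wilcoxon-Mann-Whitney statistic, the E-score, was assigned to each ungapped eight-base word pooled with its reverse complement by the Universal PBM Analysis Suite.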
row,Sequence,PBM E-score
1,CGACGTCG,-0.184
2,GACAGAGA,0.0101
3,AGTTGGCG,-0.0302
4,GATTATCA,0.148
5,ATACTGTA,0.102
6,CATTTGCC,-0.153
7,ACAACCGG,0.282
8,GACGTCTA,-0.233
9,TTCTGAAA,0.0488
10,CGAGTACC,0.0177
11,AGGCGCAC,-0.0347
12,CACTTCAA,0.12
13,AATGATAC,0.211
14,AGAAGGGA,-0.426
15,GGAGGTTA,-0.1
16,GGAAGGGA,-0.0945
17,ACGGCCGC,0.244
18,AAACAACT,0.13
19,AAATTAGC,0.137
20,CGGTCAGC,-0.0378
21,CACCTCCC,-0.324
22,AAAGAGGA,-0.0862
23,GCCGAGCA,0.186
24,GTATATCA,0.244
25,GGAGACCA,-0.0708

# Already shown: entries from further up.
row,Sequence,PBM E-score
14,AGAAGGGA,-0.426
15,GGAGGTTA,-0.1
16,GGAAGGGA,-0.0945
17,ACGGCCGC,0.244
18,AAACAACT,0.13
19,AAATTAGC,0.137

# Additional records follow.

row,Sequence,PBM E-score
1,CTGCGTGC,-0.0611
2,CCCTGCTC,-0.177
3,CTCTAGGC,-0.154
4,CCGGACGG,0.295
5,CACTGATC,-0.102
6,CGCCCTTA,-0.179
7,CCTGAAAC,0.15
8,AGGGTGAA,-0.136
9,CATATTCA,0.155
10,CGGCATGA,0.313
11,CTTTACCC,0.00954
12,CAAGCCCA,-0.326
13,CAATCGAA,0.1
14,GTTTCTCA,-0.0303
15,TAGAGGCA,-0.265
16,AAGCTGGA,-0.088
17,CACCATCA,-0.245
18,AACTGGTG,-0.216
19,AGATACGG,0.22
20,TAAAGGGA,-0.0443
21,AAGTCCGA,0.182
22,GATATAGC,-0.0522
23,AAGAGCCA,0.00995
24,GACACATC,-0.0377
25,CCTTTTAA,0.0614

row,Sequence,PBM E-score
1,CTGCGATA,-0.0577
2,ATCCAATG,-0.147
3,CTCATGGA,-0.035
4,GGGATGTA,-0.131
5,AAGAGACC,0.114
6,GTATTGAC,-0.22
7,ACGACCGA,0.0332
8,GGGGAAAC,-0.0565
9,GACACTCC,0.0939
10,CCAGGAGC,-0.233
11,TCATGAGA,0.031
12,CAAAGGAG,-0.122
13,CATGACGA,-0.0421
14,GACGGCCA,-0.117
15,ATAAAGAG,-0.174
16,AAACGTGT,0.0448
17,CACTGATG,-0.095
18,GCGCCGTA,0.247
19,CAAGCCGC,-0.0146
20,CCCTGCCC,-0.297
21,ATTGCATG,0.126
22,GCTTTGTA,0.157
23,AGTAAATG,0.146
24,AACGATCC,-0.0945
25,ACTTTGAG,0.0272

# 3 entries picked at random from those above:
row,Sequence,PBM E-score
13,CATGACGA,-0.0421
12,CAAAGGAG,-0.122
1,CTGCGATA,-0.0577

# The listing continues.

row,Sequence,PBM E-score
1,ACGGTACA,-0.0253
2,AAGGGGGT,-0.39
3,AATGGTCG,-0.0457
4,ATCCCGTC,-0.0516
5,CAGTCCTC,-0.248
6,CACCATAA,-0.134
7,ATCATTCG,0.184
8,TACCAGCA,-0.181
9,GGGAGCAC,-0.0863
10,ACCTGTGA,0.0727
11,AGGTGTGG,-0.305
12,GTCTAGGA,-0.0819
13,GTATTTTA,0.236
14,AGATGGCG,0.0474
15,TCTGAGAA,0.0112
16,ACTTATAA,0.221
17,ATAAGTCA,-0.0747
18,CAAGCCCG,0.0934
19,AGTAGCAG,-0.0931
20,ATCGCGAG,0.118
21,GAAGTTAC,0.0984
22,CCAATACA,0.00312
23,GATTGTAC,-0.103
24,AAAGTTCG,0.229
25,CGAACCAA,0.104

row,Sequence,PBM E-score
1,GGACTTAA,-0.0986
2,AAAATCAC,0.0858
3,CCCGCGAG,0.103
4,AGTCAAGA,-0.0191
5,AAGGTGAA,-0.0939
6,AAAATTTT,0.293
7,ATTTGCTA,0.0871
8,AACCGTAG,0.00354
9,GTAGAAAC,0.0701
10,CCTCAACA,0.126
11,CGCTCAAG,-0.0178
12,TCCCAACA,-0.109
13,CGAAGCAA,0.0302
14,ACCCAGTC,-0.229
15,CACACTGC,-0.155
16,CAGTTCCA,-0.103
17,AGTCCTAT,-0.174
18,CGTCCCTC,-0.0803
19,CCGTTTCC,-0.00402
20,AAGTGGCT,-0.101
21,GCAGACTA,-0.0298
22,CATGTTCG,0.0957
23,GGGATGGA,-0.0899
24,CCGAAAGC,0.145
25,TAACGTGA,-0.0842

row,Sequence,PBM E-score
1,CGAAAAAA,0.233
2,ATCCCAGC,-0.059
3,ACGCTGCG,-0.0865
4,CTTACCTC,-0.191
5,AAGTAGTC,0.0817
6,CAAGGCCG,0.187
7,TCAGAGGA,-0.145
8,CGCTGCAG,-0.152
9,GGCATAGA,0.0796
10,AGCCACTC,-0.212
11,GATGTTAC,0.133
12,CTTCACGC,0.075
13,CACAGTGC,-0.0361
14,ATCCACTA,0.105
15,CTCCCGAA,-0.0112
16,AACTCAGA,0.109
17,AAAATGCA,-0.0621
18,CCTTTCCG,0.215
19,GCCTTTCC,0.0586
20,GCATATCA,0.0856
21,GCGTTAAA,-0.0955
22,AAACCAAT,0.152
23,GGAAACCC,0.0877
24,AGCAGTAT,0.0365
25,AACGTATT,0.084

row,Sequence,PBM E-score
1,GGGGAGAC,-0.179
2,CAGCTAAA,-0.0367
3,CAACATGA,0.0223
4,ATGTGCCA,-0.0641
5,CCTATCCC,-0.00501
6,AATTACAG,0.212
7,CTTAAAGC,0.152
8,CCACTGGA,-0.138
9,ATCCTGAG,-0.0693
10,AACGTGAT,-0.0005
11,CCGATTGA,0.175
12,CCATGGCG,0.101
13,GCGCCACA,-0.162
14,AAATTTTA,0.0948
15,AGACGCCC,-0.0845
16,CCAAAATC,0.0552
17,CCTCCAAG,-0.12
18,ACCGTTAT,0.0567
19,ACTCATCA,0.00089
20,AATCGATA,0.142
21,AGGCACCA,-0.0795
22,AGAGCCCG,-0.0183

# Taken from above.
# For PBM E-score, GCGCCACA is listed with -0.162
# For PBM E-score, AGGCACCA is listed with -0.0795
